Assay results reported in PubChem BioAssay AID504444 (National Center for Advancing Translational Sciences (NCATS), 2011).
Screen size: about 360,000 compounds; about 7,500 (2.1%) were called active. This list was built around the results that the source calls inconclusive (neither active nor inactive); the mix of calls is not that of the screen. Calls follow the shape of the dose curve; as a rule, active = well fitted inhibition curve with a large enough effect; inconclusive = small, poorly fitted or top-dose-only effect, or effect the other way; inactive = flat fitted curve, though single readings scatter. Potencies of inconclusive entries are doubtful fits and often do not repeat.
Potency is read from the fitted curve at half-maximal effect.

Assay: Nrf2 qHTS screen for inhibitors; also: nearly all actives have a fitted effect of over 60% in size
Settings: A549 ARE-Fluc reporter, luciferase luminescence, 18-24 h; series mostly up to 46 µM
Summary of the method: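 A549 ARE_Fluc cells (5000/well, 5% FBS OPTI-MEM) pre-incubated 2 h, then treated with compounds 18-24 h at 37C/5% CO2 in concentration-response. CellTiter-Fluor viability read first; BugLite luciferase luminescence after 15 min at room temperature gives Nrf2 activity.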
With `O=C(COc1ccccc1)NC(=S)N1CCc2ccccc21` the Potency was inconclusive: 13 µM [activator, partial curve]. With `CCOc1ccc(NC(=O)Cn2cc(C(=O)c3ccc(CC)cc3)c(=O)c3cc4c(cc32)OCO4)cc1` the Potency was “inactive”. For `Cc1ccc(Cl)cc1N1CCN(C(=O)c2cnn(C(C)(C)C)c2C2CCN(C(=O)OC(C)(C)C)CC2)CC1`, the Potency was inconclusive: 29.1 µM [falling, single point]. For `CC(=O)c1c(C)[nH]c(C2=NNC(=NC(C)(C)C)SC2)c1C`, the Potency was inconclusive: 23.1 µM [activator, partial curve, poor fit]. With `C=C(C)Cn1c(=O)c2c(nc3n2CCN3c2cc(C)cc(C)c2)n(C)c1=O` the Potency was inconclusive: 29.1 µM [activator, single point]. In the case of `OC(COCC(F)(F)C(F)(F)C(F)(F)C(F)F)Cn1c2ccc(Cl)cc2c2cc(Cl)ccc21` (centres undefined), the Potency is reported as inconclusive: 23.1 µM [falling, single point]. For `CC(C)c1c(C(=O)N/N=C/c2ccc(OCc3ccccc3)cc2)nnn1-c1nonc1N`, the Potency was inconclusive: 25.9 µM [falling, single point]. In the case of `CCOC(=O)c1c(NC(=O)C[n+]2ccc(N(C)C)cc2)sc(C)c1C`, the Potency is reported as “inactive”. For `O=C(NCCc1ccccc1)c1ccc(Cl)c(S(=O)(=O)N2CCOCC2)c1`, the Potency was inconclusive: 29.1 µM [falling, single point]. For `O=C(CSc1ncc(-c2ccccc2)n1CC1CCCO1)N1CCCCC1` (centres undefined), the Potency was “inactive”. For `CC(C)CCNC(=O)NC(=O)CSc1nnc(-c2ccccc2Br)o1`, the Potency was inconclusive: 29.1 µM [falling, single point]. For `COc1ccc(-c2ccn(-c3cccc(F)n3)n2)cc1`, the Potency was inconclusive: 7.31 µM [activator, partial curve]. For `COc1ccc(S(=O)(=O)N2CCOCC2)cc1NC(=O)Cc1ccccc1Cl`, the Potency was “inactive”. With `Cc1cc(C(=O)N/N=C/c2ccc(O)c(O)c2O)c(C)n1-c1ccccc1` the Potency was inconclusive: 20.6 µM [falling, single point]. With `O=C1NC(=S)S/C1=C\C=C\c1ccc([N+](=O)[O-])o1` the Potency was inconclusive: 29.1 µM [falling, single point]. With `Cc1ccc2oc(=O)c(S(=O)(=O)c3ccc(F)cc3)cc2c1` the Potency was “inactive”. With `CC(C)NC(=O)c1ccc2c3n(nc2c1)-c1ccccc1CO3` the Potency was inconclusive: 29.1 µM [falling, single point]. With `COc1ccc(NC(=O)c2ccco2)cc1NC(=O)c1ccc(C)c(C)c1` the Potency was “inactive”. With `C=CCN1C(=O)CSC1=Nc1ccc(O)cc1` the Potency was inconclusive: 9.2 µM [falling, partial curve, poor fit].
